According to patent US20050192359A1 (priority 2002, published 2005):
Some results were stated once for a whole list of compounds, not compound by compound.

Columns and labels:
[1] = tested on: Phytophthora infestans; format: in vivo; settings: tomato (variety: Ponterosa), 500ppm foliar spray before inoculation, one day at 23° C. high humidity then 4 days in green house
[2] = tested on: Plasmopara viticola; assay: Test Example 2: foliar spray on grape, then inoculation with Plasmopara viticola, lesion area observed visually; format: in vivo; settings: grape (variety: Berry A), 200 ppm foliar spray before inoculation, one day at 23° C. high humidity then 6 days in green house

C#CCOC(C(=O)Nc1ccccc1-c1ccc(OC)c(OC)c1)c1ccc(OC)cc1 (stereo not shown) [1-080, N-(3′,4′-dimethoxybiphenyl-2-yl)-2-(4-methoxyphenyl)-2-(2-propynyloxy)acetamide]
lesion area on treated plants relative to the lesion area on a non-treatment plant [1]: not more than 10%
lesion area on treated plants relative to the lesion area on a non-treatment plant [2]: not more than 10%

C#CCOC(C(=O)Nc1ccccc1-c1ccc(OC)c(OC)c1)c1ccccc1 (stereo not shown) [1-058, N-(3′,4′-dimethoxybiphenyl-2-yl)-2-phenyl-2-(2-propynyloxy)acetamide]
lesion area on treated plants relative to the lesion area on a non-treatment plant [1]: not more than 10%
lesion area on treated plants relative to the lesion area on a non-treatment plant [2]: not more than 10%

C#CCOC(C(=O)Nc1cccc(C)c1-c1ccc(OC)c(OC)c1)c1ccc(C)cc1 (stereo not shown) [2-046, N-(3′,4′-dimethoxy-6-methylbiphenyl-2-yl)-2-(2-propynyloxy)-2-(4-methylphenyl)acetamide]
lesion area on treated plants relative to the lesion area on a non-treatment plant [1]: not more than 10%
lesion area on treated plants relative to the lesion area on a non-treatment plant [2]: not more than 10%

C#CCOC(C(=O)Nc1ccc(C)cc1-c1ccc(OC)c(OC)c1)c1ccc(C)cc1 (stereo not shown) [2-062, N-(3′,4′-dimethoxy-5-methyl-biphenyl-2-yl)-2-(2-propynyloxy)-2-(4-methylphenyl)acetamide]
lesion area on treated plants relative to the lesion area on a non-treatment plant [1]: not more than 10%
lesion area on treated plants relative to the lesion area on a non-treatment plant [2]: not more than 10%

C#CCOC(C(=O)Nc1cc(C)ccc1-c1ccc(OC)c(OC)c1)c1ccc(C)cc1 (stereo not shown) [2-078, N-(3′,4′-dimethoxy-4-methylbiphenyl-2-yl)-2-(2-propynyloxy)-2-(4-methylphenyl)acetamide]
lesion area on treated plants relative to the lesion area on a non-treatment plant [1]: not more than 10%
lesion area on treated plants relative to the lesion area on a non-treatment plant [2]: not more than 10%

C#CCOC(C(=O)Nc1ccccc1-c1ccc(OC)c(OC)c1)c1cccc(C)c1 (stereo not shown) [1-098, N-(3′,4′-dimethoxybiphenyl-2-yl)-2-(2-propynyloxy)-2-(3-methylphenyl)acetamide]
lesion area on treated plants relative to the lesion area on a non-treatment plant [1]: not more than 10%
lesion area on treated plants relative to the lesion area on a non-treatment plant [2]: not more than 10%

C#CCOC(C(=O)Nc1ccccc1-c1ccc(OC)c(OC)c1)c1ccc(C)cc1 (stereo not shown) [1-063]
lesion area on treated plants relative to the lesion area on a non-treatment plant [1]: not more than 10%
lesion area on treated plants relative to the lesion area on a non-treatment plant [2]: not more than 10%

C#CCOC(C(=O)Nc1ccccc1-c1ccc(OC)c(OC)c1)c1ccc(CC)cc1 (stereo not shown) [1-064, N-(3′,4′-dimethoxybiphenyl-2-yl)-2-(4-ethylphenyl)-2-(2-propynyloxy)acetamide]
lesion area on treated plants relative to the lesion area on a non-treatment plant [1]: not more than 10%
lesion area on treated plants relative to the lesion area on a non-treatment plant [2]: not more than 10%

C#CCOc1ccc(-c2ccccc2NC(=O)C(OCC#C)c2ccc(C)cc2)cc1OC (stereo not shown) [2-025, N-(3 ′-methoxy-4′-(2-propynyloxy)biphenyl-2-yl)-2-(2-propynyloxy)-2-(4-methylphenyl)acetamide]
lesion area on treated plants relative to the lesion area on a non-treatment plant [1]: not more than 10%
lesion area on treated plants relative to the lesion area on a non-treatment plant [2]: not more than 10%

COc1ccc(-c2ccccc2NC(=O)C(OC(C)=O)c2ccc(Cl)cc2)cc1OC (stereo not shown) [1-202, 2-acetyloxy-2-(4-chlorophenyl)-N-(3′,4′-dimethoxybiphenyl-2-yl)acetamide]
lesion area on treated plants relative to the lesion area on a non-treatment plant [1]: not more than 10%

COc1ccc(-c2ccccc2NC(=O)C(OC)c2ccc(C)cc2)cc1OC (stereo not shown) [1-006, N-(3′,4′-dimethoxybiphenyl-2-yl)-2-methoxy-2-(4-methylphenyl)acetamide]
lesion area on treated plants relative to the lesion area on a non-treatment plant [1]: not more than 10%
lesion area on treated plants relative to the lesion area on a non-treatment plant [2]: not more than 10%

COc1ccc(-c2ccccc2NC(=O)C(OC(=O)C(C)(C)C)c2ccc(Cl)cc2)cc1OC (stereo not shown) [1-214, 2-(4-chlorophenyl)-N-(3′,4′-dihydroxybiphenyl-2-yl)-2-pyvaloyloxyacetamide]
lesion area on treated plants relative to the lesion area on a non-treatment plant [2]: not more than 10%
